Data reported in PMC6214143, “Oncotoxic Properties of Serotonin Transporter Inhibitors and 5-HT1A Receptor Ligands” (International Journal of Molecular Sciences, 2018).

Experiments:
[1] = tested on: SH-SY5Y cells; experiment: MTT cell survival assay, SH-SY5Y cells; format: cell-based, human
Description: (§1) The effects of the test compounds on the survival of PC-3, SH-SY5Y, Balb/c 3T3 and HEK293 cells was measured with the aid of the 3-(4,5-dimethylthiazol-2-yl)-2,5-diphenyltetrazolium bromide (MTT) assay. The cells were cultured in 96-well plates (100 μL/well) for 72 h. The optimized initial densities were the following: for PC-3—60,000 cells/mL, SH-SY5Y and Balb/c 3T3—50,000 cells/mL.
(§2) After 20 h preincubation and evaluation of the uniformity of cell growth, the medium was aspirated, and the respective solutions of the substances were added to the culture medium. Control cells were only treated the solvent used for the compounds and medium alone.
(§3) MTT (3-(4,5-dimethylthiazol-2-yl)-2,5-diphenyltetrazolium bromide) is reduced by intracellular dehydrogenase, which is present only in live cells (mitochondria), to purple, water-insoluble formazan. After it is dissolved, formazan absorbance of the resulting solution is directly proportional to the number of living cells in culture.
(§4) After appropriate incubation, the culture medium was removed. Next, 50 μL of MTT solution (0.5 mg/mL) diluted in PBS to 0.5 mg/mL was added to each well. […] The test was performed in three to five independent experiments with four times the measured concentration tested. The cell survival percentage was determined as % of controls, which were cells treated with the test compound solvent at the highest concentration.

[2] = tested on: PC-3 cells; experiment: MTT cell survival assay, PC-3 cells; format: cell-based, human
Description: as §1, §2, §3, §4

| SMILES | IC50 ratio parent/acetylated derivative [1] | IC50 ratio parent/acetylated derivative [2] |
| --- | --- | --- |
| COCCCC/C(=N\OCCNC(C)=O)c1ccc(C(F)(F)F)cc1 [N-Ac-Fluvoxamine, reference compound] | 0.80 | 0.52 |
| CC(=O)N1CCC(c2ccc(F)cc2)C(COc2ccc3c(c2)OCO3)C1 (stereo not shown) [N-Ac-Paroxetine, reference compound] | 0.28 | 0.27 |
